The values that follow come from paper PMC3846882.

Protein sequences, listed by entry. Tags and fused reporters are not part of them.
UniProt Q15046: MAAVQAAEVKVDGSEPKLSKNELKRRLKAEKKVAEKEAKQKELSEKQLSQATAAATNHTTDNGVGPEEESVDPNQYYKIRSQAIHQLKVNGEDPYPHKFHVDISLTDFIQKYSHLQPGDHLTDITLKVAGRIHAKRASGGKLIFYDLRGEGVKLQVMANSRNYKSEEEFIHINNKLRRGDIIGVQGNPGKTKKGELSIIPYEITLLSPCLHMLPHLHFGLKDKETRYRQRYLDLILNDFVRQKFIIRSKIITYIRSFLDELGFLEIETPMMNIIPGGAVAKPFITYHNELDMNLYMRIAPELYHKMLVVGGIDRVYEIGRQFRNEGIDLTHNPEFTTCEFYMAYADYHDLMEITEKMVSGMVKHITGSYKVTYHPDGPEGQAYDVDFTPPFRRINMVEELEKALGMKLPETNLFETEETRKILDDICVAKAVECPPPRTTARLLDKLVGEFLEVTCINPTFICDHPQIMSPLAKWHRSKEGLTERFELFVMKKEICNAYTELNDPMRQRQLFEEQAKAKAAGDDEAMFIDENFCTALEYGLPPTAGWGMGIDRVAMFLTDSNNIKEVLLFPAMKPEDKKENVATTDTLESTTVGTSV

No constants are given. Whether binding was seen depends on the method and setting. In cells and extracts the contact can be indirect. These calls come from enrichment with a bait or labelling near it, and not all partners need be listed. For some of these results: Tags and fused reporters may be left off the sequences shown.

Holding throughout (assay): affinity purification with mass spectrometry; S/FLAG/SBP-tagged bait transiently expressed in HEK 293T and HCT-8 cells; 2 mg lysate protein in NETN buffer (20 mM Tris-HCl pH 7.4, 1 mM EDTA, 150 mM NaCl, 0.5% Nonidet P-40) on streptavidin agarose, 2 h, 4 °C; eluted with biotin; in-gel digestion, LC-MS/MS; SAINT probability 0.9 or above against a mock vector with the tag only; three biological replicates

Experiment [1] concerns the target T1, S/FLAG/SBP tagged AIMP2 (UniProt Q13155).
T1 sequence: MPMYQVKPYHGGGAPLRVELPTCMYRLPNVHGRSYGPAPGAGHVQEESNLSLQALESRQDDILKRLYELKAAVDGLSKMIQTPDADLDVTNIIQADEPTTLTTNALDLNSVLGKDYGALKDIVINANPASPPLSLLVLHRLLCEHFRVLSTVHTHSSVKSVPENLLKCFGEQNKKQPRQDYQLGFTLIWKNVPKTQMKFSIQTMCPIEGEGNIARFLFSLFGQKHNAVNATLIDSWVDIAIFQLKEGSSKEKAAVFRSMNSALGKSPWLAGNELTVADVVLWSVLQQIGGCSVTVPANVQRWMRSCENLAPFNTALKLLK

For experiment [2], the target named is T2, S/FLAG/SBP tagged AIMP1 (UniProt Q12904).
T2 sequence: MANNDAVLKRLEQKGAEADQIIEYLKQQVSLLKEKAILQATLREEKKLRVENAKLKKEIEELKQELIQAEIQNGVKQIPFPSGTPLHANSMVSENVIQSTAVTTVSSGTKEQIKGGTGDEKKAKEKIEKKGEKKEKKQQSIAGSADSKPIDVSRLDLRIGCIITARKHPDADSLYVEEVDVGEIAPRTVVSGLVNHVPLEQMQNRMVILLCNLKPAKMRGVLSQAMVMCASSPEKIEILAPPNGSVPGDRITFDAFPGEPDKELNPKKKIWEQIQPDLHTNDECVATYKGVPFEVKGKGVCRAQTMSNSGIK

For experiment [3], the target named is S/FLAG/SBP tagged KARS (UniProt Q15046).

B1: Eukaryotic translation elongation factor 1 epsilon-1 (protein, UniProt O43324 1-174)
chain: MAAAAELSLLEKSLGLSKGNKYSAQGERQIPVLQTNNGPSLTGLTTIAAHLVKQANKEYLLGSTAEEKAIVQQWLEYRVTQVDGHSSKNDIHTLLKDLNSYLEDKVYLTGYNFTLADILLYYGLHRFIVDLTVQEKEKYLNVSRWFCHIQHYPGIRQHLSSVVFIKNRLYTNSH
As to B1, the binding entry in experiment [1], in experiment [2] and in experiment [3] was “binds” throughout.

B2: Methionyl-tRNA synthetase (enzyme, UniProt P56192 1-900)
chain: MRLFVSDGVPGCLPVLAAAGRARGRAEVLISTVGPEDCVVPFLTRPKVPVLQLDSGNYLFSTSAICRYFFLLSGWEQDDLTNQWLEWEATELQPALSAALYYLVVQGKKGEDVLGSVRRALTHIDHSLSRQNCPFLAGETESLADIVLWGALYPLLQDPAYLPEELSALHSWFQTLSTQEPCQRAAETVLKQQGVLALRPYLQKQPQPSPAEGRAVTNEPEEEELATLSEEEIAMAVTAWEKGLESLPPLRPQQNPVLPVAGERNVLITSALPYVNNVPHLGNIIGCVLSADVFARYSRLRQWNTLYLCGTDEYGTATETKALEEGLTPQEICDKYHIIHADIYRWFNISFDIFGRTTTPQQTKITQDIFQQLLKRGFVLQDTVEQLRCEHCARFLADRFVEGVCPFCGYEEARGDQCDKCGKLINAVELKKPQCKVCRSCPVVQSSQHLFLDLPKLEKRLEEWLGRTLPGSDWTPNAQFITRSWLRDGLKPRCITRDLKWGTPVPLEGFEDKVFYVWFDATIGYLSITANYTDQWERWWKNPEQVDLYQFMAKDNVPFHSLVFPCSALGAEDNYTLVSHLIATEYLNYEDGKFSKSRGVGVFGDMAQDTGIPADIWRFYLLYIRPEGQDSAFSWTDLLLKNNSELLNNLGNFINRAGMFVSKFFGGYVPEMVLTPDDQRLLAHVTLELQHYHQLLEKVRIRDALRSILTISRHGNQYIQVNEPWKRIKGSEADRQRAGTVTGLAVNIAALLSVMLQPYMPTVSATIQAQLQLPPPACSILLTNFLCTLPAGHQIGTVSPLFQKLENDQIESLRQRFGGGQAKTSPKPAVVETVTTAKPQQIQALMDEVTKQGNIVRELKAQKADKNEVAAEVAKLLDLKKQLAVAEGKPPEAPKGKKKK
Take B2: the binding entry in experiment [2] and in experiment [3] was “binds” throughout.

B3: Isoleucyl-tRNA synthetase (enzyme, UniProt P41252 1-1262)
chain: MLQQVPENINFPAEEEKILEFWTEFNCFQECLKQSKHKPKFTFYDGPPFATGLPHYGHILAGTIKDIVTRYAHQSGFHVDRRFGWDCHGLPVEYEIDKTLGIRGPEDVAKMGITEYNNQCRAIVMRYSAEWKSTVSRLGRWIDFDNDYKTLYPQFMESVWWVFKQLYDKGLVYRGVKVMPFSTACNTPLSNFESHQNYKDVQDPSVFVTFPLEEDETVSLVAWTTTPWTLPSNLAVCVNPEMQYVKIKDVARGRLLILMEARLSALYKLESDYEILERFPGAYLKGKKYRPLFDYFLKCKENGAFTVLVDNYVKEEEGTGVVHQAPYFGAEDYRVCMDFNIIRKDSLPVCPVDASGCFTTEVTDFAGQYVKDADKSIIRTLKEQGRLLVATTFTHSYPFCWRSDTPLIYKAVPSWFVRVENMVDQLLRNNDLCYWVPELVREKRFGNWLKDARDWTISRNRYWGTPIPLWVSDDFEEVVCIGSVAELEELSGAKISDLHRESVDHLTIPSRCGKGSLHRISEVFDCWFESGSMPYAQVHYPFENKREFEDAFPADFIAEGIDQTRGWFYTLLVLATALFGQPPFKNVIVNGLVLASDGQKMSKRKKNYPDPVSIIQKYGADALRLYLINSPVVRAENLRFKEEGVRDVLKDVLLPWYNAYRFLIQNVLRLQKEEEIEFLYNENTVRESPNITDRWILSFMQSLIGFFETEMAAYRLYTVVPRLVKFVDILTNWYVRMNRRRLKGENGMEDCVMALETLFSVLLSLCRLMAPYTPFLTELMYQNLKVLIDPVSVQDKDTLSIHYLMLPRVREELIDKKTESAVSQMQSVIELGRVIRDRKTIPIKYPLKEIVVIHQDPEALKDIKSLEKYIIEELNVRKVTLSTDKNKYGIRLRAEPDHMVLGKRLKGAFKAVMTSIKQLSSEELEQFQKTGTIVVEGHELHDEDIRLMYTFDQATGGTAQFEAHSDAQALVLLDVTPDQSMVDEGMAREVINRIQKLRKKCNLVPTDEITVYYKAKSEGTYLNSVIESHTEFIFTTIKAPLKPYPVSPSDKVLIQEKTQLKGSELEITLTRGSSLPGPACAYVNLNICANGSEQGGVLLLENPKGDNRLDLLKLKSVVTSIFGVKNTELAVFHDETEIQNQTDLLSLSGKTLCVTAGSAPSLINSSSTLLCQYINLQLLNAKPQECLMGTVGTLLLENPLGQNGLTHQGLLYEAAKVFGLRSRKLKLFLNETQTQEITEDIPVKTLNMKTVYVSVLPTTADF
For B3, the binding result in experiment [1], in experiment [2] and in experiment [3] was “binds” throughout.

B4: TNF receptor-associated factor 4 (protein, UniProt Q9BUZ4 1-470)
chain: MPGFDYKFLEKPKRRLLCPLCGKPMREPVQVSTCGHRFCDTCLQEFLSEGVFKCPEDQLPLDYAKIYPDPELEVQVLGLPIRCIHSEEGCRWSGPLRHLQGHLNTCSFNVIPCPNRCPMKLSRRDLPAHLQHDCPKRRLKCEFCGCDFSGEAYESHEGMCPQESVYCENKCGARMMRRLLAQHATSECPKRTQPCTYCTKEFVFDTIQSHQYQCPRLPVACPNQCGVGTVAREDLPGHLKDSCNTALVLCPFKDSGCKHRCPKLAMARHVEESVKPHLAMMCALVSRQRQELQELRRELEELSVGSDGVLIWKIGSYGRRLQEAKAKPNLECFSPAFYTHKYGYKLQVSAFLNGNGSGEGTHLSLYIRVLPGAFDNLLEWPFARRVTFSLLDQSDPGLAKPQHVTETFHPDPNWKNFQKPGTWRGSLDESSLGFGYPKFISHQDIRKRNYVRDDAVFIRAAVELPRKILS
Take B4: in experiment [3], the binding entry is on record as “binds”.

B5: Isoform 1 of Probable threonyl-tRNA synthetase 2 (enzyme, UniProt A2RTX5 1-802)
chain: MAAEALAAEAVASRLERQEEDIRWLWSEVERLRDEQLNAPYSCQAEGPCLTREVAQLRAENCDLRHRLCSLRLCLAEERSRQATLESAELEAAQEAGAQPPPSQSQDKDMKKKKMKESEADSEVKHQPIFIKERLKLFEILKKDHQLLLAIYGKKGDTSNIITVRVADGQTVQGEVWKTTPYQVAAEISQELAESTVIAKVNGELWDLDRPLEGDSSLELLTFDNEEAQAVYWHSSAHILGEAMELYYGGHLCYGPPIENGFYYDMFIEDRAVSSTELSALENICKAIIKEKQPFERLEVSKEILLEMFKYNKFKCRILNEKVNTATTTVYRCGPLIDLCKGPHVRHTGKIKTIKIFKNSSTYWEGNPEMETLQRIYGISFPDNKMMRDWEKFQEEAKNRDHRKIGKEQELFFFHDLSPGSCFFLPRGAFIYNTLTDFIREEYHKRDFTEVLSPNMYNSKLWEASGHWQHYSENMFTFEIEKDTFALKPMNCPGHCLMFAHRPRSWREMPIRFADFGVLHRNELSGTLSGLTRVRRFQQDDAHIFCTVEQIEEEIKGCLQFLQSVYSTFGFSFQLNLSTRPENFLGEIEMWNEAEKQLQNSLMDFGEPWKMNPGDGAFYGPKIDIKIKDAIGRYHQCATIQLDFQLPIRFNLTYVSKDGDDKKRPVIIHRAILGSVERMIAILSENYGGKWPFWLSPRQVMVIPVGPTCEKYALQVSSEFFEEGFMADVDLDHSCTLNKKIRNAQLAQYNFILVVGEKEKIDNAVNVRTRDNKIHGEILVTSAIDKLKNLRKTRTLNAEEAF
Regarding B5, the binding entry in experiment [1] and in experiment [2] was “binds” in each case.

B6: ER membrane lipid raft-associated 2 (protein, UniProt O94905 1-339)
chain: MAQLGAVVAVASSFFCASLFSAVHKIEEGHIGVYYRGGALLTSTSGPGFHLMLPFITSYKSVQTTLQTDEVKNVPCGTSGGVMIYFDRIEVVNFLVPNAVYDIVKNYTADYDKALIFNKIHHELNQFCSVHTLQEVYIELFDQIDENLKLALQQDLTSMAPGLVIQAVRVTKPNIPEAIRRNYELMESEKTKLLIAAQKQKVVEKEAETERKKALIEAEKVAQVAEITYGQKVMEKETEKKISEIEDAAFLAREKAKADAECYTAMKIAEANKLKLTPEYLQLMKYKAIASNSKIYFGKDIPNMFMDSAGSVSKQFEGLADKLSFGLEDEPLETATKEN
B6: in experiment [1], the binding entry was “binds”.

B7: AIMP1 isoform 2 (protein, UniProt Q12904-2 1-336)
chain: MLPAVAVSEPVVLRFMIFCRLLAKMANNDAVLKRLEQKGAEADQIIEYLKQQVSLLKEKAILQATLREEKKLRVENAKLKKEIEELKQELIQAEIQNGVKQIPFPSGTPLHANSMVSENVIQSTAVTTVSSGTKEQIKGGTGDEKKAKEKIEKKGEKKEKKQQSIAGSADSKPIDVSRLDLRIGCIITARKHPDADSLYVEEVDVGEIAPRTVVSGLVNHVPLEQMQNRMVILLCNLKPAKMRGVLSQAMVMCASSPEKIEILAPPNGSVPGDRITFDAFPGEPDKELNPKKKIWEQIQPDLHTNDECVATYKGVPFEVKGKGVCRAQTMSNSGIK
For B7, the binding entry in experiment [3] was “binds”.
